# Paper PMC13080232
# Chains of the proteins cited; added tags and fusions are not shown. Lines headed by an entry give the natural chain unless they say otherwise; changes in a name come on top. Residues count along the entry.
# UniProt P21926: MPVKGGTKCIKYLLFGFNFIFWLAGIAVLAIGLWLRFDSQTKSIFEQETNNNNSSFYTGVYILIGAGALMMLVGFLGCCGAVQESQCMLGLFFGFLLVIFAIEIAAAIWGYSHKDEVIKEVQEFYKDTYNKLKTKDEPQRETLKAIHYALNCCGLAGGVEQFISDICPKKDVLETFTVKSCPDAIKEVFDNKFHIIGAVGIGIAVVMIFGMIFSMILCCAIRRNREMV
# UniProt P16070, residues 21-742: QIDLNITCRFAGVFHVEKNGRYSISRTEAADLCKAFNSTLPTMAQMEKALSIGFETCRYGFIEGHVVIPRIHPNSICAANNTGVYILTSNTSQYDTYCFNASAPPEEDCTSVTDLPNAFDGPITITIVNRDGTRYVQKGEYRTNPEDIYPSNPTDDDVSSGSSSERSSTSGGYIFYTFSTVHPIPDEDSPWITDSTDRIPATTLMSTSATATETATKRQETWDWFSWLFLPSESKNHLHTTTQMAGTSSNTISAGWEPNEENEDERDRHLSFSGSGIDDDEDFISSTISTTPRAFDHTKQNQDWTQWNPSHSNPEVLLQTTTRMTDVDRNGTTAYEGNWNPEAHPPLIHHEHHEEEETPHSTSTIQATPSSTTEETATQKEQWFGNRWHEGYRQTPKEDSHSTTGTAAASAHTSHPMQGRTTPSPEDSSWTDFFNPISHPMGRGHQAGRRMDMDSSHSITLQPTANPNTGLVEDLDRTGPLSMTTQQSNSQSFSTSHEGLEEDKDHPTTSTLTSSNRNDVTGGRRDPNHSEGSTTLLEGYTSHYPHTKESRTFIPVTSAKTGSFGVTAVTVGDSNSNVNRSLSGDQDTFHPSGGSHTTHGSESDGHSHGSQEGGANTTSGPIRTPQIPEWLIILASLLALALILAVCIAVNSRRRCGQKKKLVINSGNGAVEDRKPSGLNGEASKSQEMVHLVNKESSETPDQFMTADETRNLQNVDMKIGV
# UniProt P15529, residues 35-392: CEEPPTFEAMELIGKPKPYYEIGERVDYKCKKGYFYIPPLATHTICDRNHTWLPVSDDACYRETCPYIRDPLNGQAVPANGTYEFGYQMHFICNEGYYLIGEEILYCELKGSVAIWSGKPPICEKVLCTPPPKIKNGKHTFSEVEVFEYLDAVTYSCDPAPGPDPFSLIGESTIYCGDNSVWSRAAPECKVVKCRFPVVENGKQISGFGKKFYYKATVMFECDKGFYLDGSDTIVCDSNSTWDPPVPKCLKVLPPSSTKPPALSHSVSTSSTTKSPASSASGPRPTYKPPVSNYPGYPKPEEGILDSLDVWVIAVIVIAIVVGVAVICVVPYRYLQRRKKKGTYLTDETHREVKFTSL
# UniProt O75575: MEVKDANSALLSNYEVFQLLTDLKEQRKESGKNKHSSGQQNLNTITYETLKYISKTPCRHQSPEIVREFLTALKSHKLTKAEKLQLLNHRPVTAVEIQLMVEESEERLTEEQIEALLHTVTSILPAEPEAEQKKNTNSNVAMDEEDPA
# UniProt Q13467, residues 27-585: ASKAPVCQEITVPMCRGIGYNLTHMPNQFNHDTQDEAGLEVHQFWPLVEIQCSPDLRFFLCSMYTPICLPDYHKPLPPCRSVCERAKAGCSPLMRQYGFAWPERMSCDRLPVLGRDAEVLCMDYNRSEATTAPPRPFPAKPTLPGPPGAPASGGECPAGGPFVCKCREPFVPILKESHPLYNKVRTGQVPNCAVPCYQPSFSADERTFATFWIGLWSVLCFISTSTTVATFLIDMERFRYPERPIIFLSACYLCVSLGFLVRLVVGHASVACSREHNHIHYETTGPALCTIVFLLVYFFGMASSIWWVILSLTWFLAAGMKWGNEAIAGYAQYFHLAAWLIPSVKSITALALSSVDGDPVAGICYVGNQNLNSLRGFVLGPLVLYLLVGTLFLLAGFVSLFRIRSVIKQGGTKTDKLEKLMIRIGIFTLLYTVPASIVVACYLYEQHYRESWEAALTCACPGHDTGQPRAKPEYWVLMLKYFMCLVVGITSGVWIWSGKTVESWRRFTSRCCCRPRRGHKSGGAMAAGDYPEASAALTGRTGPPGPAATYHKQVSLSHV
# UniProt Q15004: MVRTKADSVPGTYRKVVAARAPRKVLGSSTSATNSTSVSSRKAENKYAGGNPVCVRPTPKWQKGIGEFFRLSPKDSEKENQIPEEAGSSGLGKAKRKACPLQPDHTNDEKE
# UniProt P36021: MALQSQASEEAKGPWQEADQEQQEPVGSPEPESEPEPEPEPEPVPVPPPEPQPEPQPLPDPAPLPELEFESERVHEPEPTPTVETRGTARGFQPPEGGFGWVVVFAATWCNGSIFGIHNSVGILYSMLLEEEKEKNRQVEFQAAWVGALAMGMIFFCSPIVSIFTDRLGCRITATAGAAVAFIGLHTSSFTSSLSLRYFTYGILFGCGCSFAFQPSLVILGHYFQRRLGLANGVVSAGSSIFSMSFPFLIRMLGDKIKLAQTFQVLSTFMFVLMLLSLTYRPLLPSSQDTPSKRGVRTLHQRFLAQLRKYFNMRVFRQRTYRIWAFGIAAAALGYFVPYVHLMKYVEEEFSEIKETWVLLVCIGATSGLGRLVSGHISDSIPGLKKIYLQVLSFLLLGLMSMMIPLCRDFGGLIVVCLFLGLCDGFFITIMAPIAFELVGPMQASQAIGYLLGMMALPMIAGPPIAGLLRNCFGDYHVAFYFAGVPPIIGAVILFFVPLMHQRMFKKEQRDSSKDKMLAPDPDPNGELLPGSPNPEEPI
# UniProt O95858: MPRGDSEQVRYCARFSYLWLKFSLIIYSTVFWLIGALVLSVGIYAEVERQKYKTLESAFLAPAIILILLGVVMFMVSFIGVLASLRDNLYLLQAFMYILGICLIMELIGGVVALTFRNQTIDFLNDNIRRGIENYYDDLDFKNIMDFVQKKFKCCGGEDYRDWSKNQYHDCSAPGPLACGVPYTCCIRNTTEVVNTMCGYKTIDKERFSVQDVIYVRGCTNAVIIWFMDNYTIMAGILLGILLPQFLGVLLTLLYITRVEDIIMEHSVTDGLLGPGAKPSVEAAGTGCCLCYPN
# UniProt P29317, residues 24-976: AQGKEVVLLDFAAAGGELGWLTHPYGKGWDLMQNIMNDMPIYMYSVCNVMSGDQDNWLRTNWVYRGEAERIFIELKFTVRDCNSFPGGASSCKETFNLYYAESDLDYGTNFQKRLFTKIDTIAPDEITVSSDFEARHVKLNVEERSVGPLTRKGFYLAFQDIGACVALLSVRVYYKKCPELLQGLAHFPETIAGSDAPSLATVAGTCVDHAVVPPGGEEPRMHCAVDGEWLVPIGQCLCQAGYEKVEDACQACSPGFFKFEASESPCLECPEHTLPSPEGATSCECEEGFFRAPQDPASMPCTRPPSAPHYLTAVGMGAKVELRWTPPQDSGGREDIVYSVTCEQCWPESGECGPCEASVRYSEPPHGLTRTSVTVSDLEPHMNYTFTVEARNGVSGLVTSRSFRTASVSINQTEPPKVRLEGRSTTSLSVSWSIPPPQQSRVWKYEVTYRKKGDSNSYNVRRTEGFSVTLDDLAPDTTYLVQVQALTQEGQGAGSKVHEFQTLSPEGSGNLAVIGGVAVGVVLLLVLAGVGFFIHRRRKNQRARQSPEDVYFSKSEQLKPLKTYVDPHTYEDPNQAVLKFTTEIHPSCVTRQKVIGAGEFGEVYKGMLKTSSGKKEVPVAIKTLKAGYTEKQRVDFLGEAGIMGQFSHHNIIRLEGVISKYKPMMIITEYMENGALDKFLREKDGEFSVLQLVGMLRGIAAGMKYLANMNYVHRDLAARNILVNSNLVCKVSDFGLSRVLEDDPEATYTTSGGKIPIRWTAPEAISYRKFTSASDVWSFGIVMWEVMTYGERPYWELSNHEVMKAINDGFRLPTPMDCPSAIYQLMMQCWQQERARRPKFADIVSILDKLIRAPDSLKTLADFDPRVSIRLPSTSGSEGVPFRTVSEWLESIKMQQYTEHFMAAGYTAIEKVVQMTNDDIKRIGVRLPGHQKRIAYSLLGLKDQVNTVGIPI
# UniProt P05556: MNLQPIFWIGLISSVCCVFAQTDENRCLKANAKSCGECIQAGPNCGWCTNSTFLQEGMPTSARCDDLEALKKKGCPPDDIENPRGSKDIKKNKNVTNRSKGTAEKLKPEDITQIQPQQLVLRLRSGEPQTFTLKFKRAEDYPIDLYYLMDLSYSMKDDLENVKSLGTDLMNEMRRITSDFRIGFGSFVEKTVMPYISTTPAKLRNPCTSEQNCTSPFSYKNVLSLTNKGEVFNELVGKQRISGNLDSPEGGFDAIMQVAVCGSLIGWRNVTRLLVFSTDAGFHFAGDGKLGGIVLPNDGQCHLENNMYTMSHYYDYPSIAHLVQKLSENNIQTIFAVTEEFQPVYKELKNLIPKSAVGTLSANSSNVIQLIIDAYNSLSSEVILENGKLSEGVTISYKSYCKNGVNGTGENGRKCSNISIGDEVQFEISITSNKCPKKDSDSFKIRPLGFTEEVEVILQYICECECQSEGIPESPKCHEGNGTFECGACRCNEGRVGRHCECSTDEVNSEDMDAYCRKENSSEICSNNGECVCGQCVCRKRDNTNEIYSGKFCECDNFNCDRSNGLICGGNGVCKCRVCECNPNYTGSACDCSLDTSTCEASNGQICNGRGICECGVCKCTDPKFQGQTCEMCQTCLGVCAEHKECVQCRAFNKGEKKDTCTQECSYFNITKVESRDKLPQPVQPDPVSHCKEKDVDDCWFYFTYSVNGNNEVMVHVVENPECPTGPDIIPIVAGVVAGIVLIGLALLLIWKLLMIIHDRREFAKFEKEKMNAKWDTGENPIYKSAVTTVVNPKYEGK
# Biological target: CD9:TurboID fusion protein (human) (UniProt P21926)
# Experiment: proximity labelling; CD9:TurboID-V5 stably expressed in CD9-/- A549 cells; 50 μM biotin for 30, 60 or 240 min; cells uninfected or infected with N. meningitidis MC58 or S. aureus SH1000 (MOI = 50); RIPA lysis, streptavidin bead pull-down, on-bead digestion, LC-MS/MS with LFQ; enrichment against cytosolic TurboID (FDR 0.01, s0 = 2), infected against uninfected (FDR 0.05, s0 = 0.1)
row,binding,Substance
1,binds,CD44 (from UniProt P16070 21-742)
2,binds,CD46 (from UniProt P15529 35-392)
3,binds,CGRP receptor component (from UniProt O75575 1-148)
4,binds,Frizzled class receptor 5 (from UniProt Q13467 27-585)
5,binds,PCNA clamp-associated factor (from UniProt Q15004 1-111)
6,binds,Solute carrier family 16 member 2 (from UniProt P36021 1-539)
7,binds,Tspan15 (from UniProt O95858 1-294)
8,binds,ephrin type-A receptor 2 (from UniProt P29317 24-976)
9,binds,integrin β1 (from UniProt P05556 21-798)

# Results are given in words; binding and its absence hold for the method and conditions named. In cells and extracts the contact can be indirect. Here binding means that the protein was enriched with, or labelled near, the bait; the list need not be complete.
